Measurements reported in PubChem BioAssay AID504808 (Drosophila RNAi Screening Center, 2011).
Aim: 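Fly genes required to hold E2F transcription in check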 (primary screen). System: Drosophila S2 cells. Reagent: long dsRNA against Drosophila genes. Read-out: 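Firefly luciferase driven by E2F sites, normalised to Renilla luciferase on the same minimal promoter, measured by plate reader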. Scale: E2F firefly: higher = more E2F reporter activity; Renilla normaliser: higher = more normaliser reporter signal. Hit rule: 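Called active if the normalised E2F reporter went up by over 50%; the cutoff is arbitrary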.
The screen tested about 21,000 reagents; below is a random part of those that have a named target and a result. Over the whole deposit, 18 (0.084%) were called active. 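Raw counts without plate normalisation, one of two replicates; the ratio scores behind the calls were not deposited.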 A plus sign joins genes that one reagent is predicted to hit. Not given: the amount of reagent, the time to read-out.

Agxt (GeneID 31587) [DRSC18718] — E2F firefly, rep 1: 7878; Renilla normaliser, rep 1: 684; Call: inactive
Ir94c (GeneID 318727) [DRSC13539] — E2F firefly, rep 1: 88192; Renilla normaliser, rep 1: 2819; Call: inactive
scat (GeneID 47942) [DRSC02722] — E2F firefly, rep 1: 91823; Renilla normaliser, rep 1: 3960; Call: inactive
BTBD9 (GeneID 32000) [DRSC18148] — E2F firefly, rep 1: 56631; Renilla normaliser, rep 1: 4158; Call: inactive
Glg1 (GeneID 40382) [DRSC11815] — E2F firefly, rep 1: 74446; Renilla normaliser, rep 1: 3342; Call: inactive
Glg1 (GeneID 40382) [DRSC11816] — E2F firefly, rep 1: 1.21e5; Renilla normaliser, rep 1: 5329; Call: inactive
Glg1 (GeneID 40382) [DRSC11817] — E2F firefly, rep 1: 1.40e5; Renilla normaliser, rep 1: 6775; Call: inactive
Obp56h (GeneID 37271) [DRSC06433] — E2F firefly, rep 1: 1.34e5; Renilla normaliser, rep 1: 4766; Call: inactive
Bili (GeneID 43019) [DRSC14405] — E2F firefly, rep 1: 65461; Renilla normaliser, rep 1: 3502; Call: inactive
CG4004 (GeneID 32226) [DRSC19791] — E2F firefly, rep 1: 8196; Renilla normaliser, rep 1: 684; Call: inactive
CG4004 (GeneID 32226) [DRSC19882] — E2F firefly, rep 1: 1.53e5; Renilla normaliser, rep 1: 6986; Call: inactive
lark (GeneID 38811) [DRSC11362] — E2F firefly, rep 1: 63678; Renilla normaliser, rep 1: 3477; Call: inactive
bug (GeneID 36749) [DRSC07137] — E2F firefly, rep 1: 69964; Renilla normaliser, rep 1: 3081; Call: inactive
mRF1 (GeneID 34720) [DRSC02880] — E2F firefly, rep 1: 97903; Renilla normaliser, rep 1: 3321; Call: inactive
CG9175 (GeneID 33862) [DRSC03153] — E2F firefly, rep 1: 90026; Renilla normaliser, rep 1: 3885; Call: inactive
witty (GeneID 34145) [DRSC02378] — E2F firefly, rep 1: 1.48e5; Renilla normaliser, rep 1: 5042; Call: inactive
Jheh2 (GeneID 37181) [DRSC06530] — E2F firefly, rep 1: 1.58e5; Renilla normaliser, rep 1: 4879; Call: inactive
Crtp (GeneID 44276) [DRSC04604] — E2F firefly, rep 1: 1.02e5; Renilla normaliser, rep 1: 4512; Call: inactive

The list goes on, starting with the last 3 of the part before.
witty (GeneID 34145) [DRSC02378] — E2F firefly, rep 1: 1.48e5; Renilla normaliser, rep 1: 5042; Call: inactive
Jheh2 (GeneID 37181) [DRSC06530] — E2F firefly, rep 1: 1.58e5; Renilla normaliser, rep 1: 4879; Call: inactive
Crtp (GeneID 44276) [DRSC04604] — E2F firefly, rep 1: 1.02e5; Renilla normaliser, rep 1: 4512; Call: inactive
CG42634 + CG42635 [DRSC02450] — E2F firefly, rep 1: 1.05e5; Renilla normaliser, rep 1: 4743; Call: inactive
CG30016 (GeneID 246393) [DRSC05242] — E2F firefly, rep 1: 1.40e5; Renilla normaliser, rep 1: 4734; Call: inactive
CG12659 (GeneID 50403) [DRSC17862] — E2F firefly, rep 1: 99244; Renilla normaliser, rep 1: 4942; Call: inactive
GCS2alpha (GeneID 49953) [DRSC21036] — E2F firefly, rep 1: 1.39e5; Renilla normaliser, rep 1: 7032; Call: inactive
CG11617 (GeneID 33183) [DRSC00321] — E2F firefly, rep 1: 1.54e5; Renilla normaliser, rep 1: 5628; Call: inactive
Cyp4p3 (GeneID 35948) [DRSC07374] — E2F firefly, rep 1: 1.46e5; Renilla normaliser, rep 1: 4765; Call: inactive
CG6012 (GeneID 35022) [DRSC02921] — E2F firefly, rep 1: 1.16e5; Renilla normaliser, rep 1: 4431; Call: inactive
Tsp39D (GeneID 35405) [DRSC03099] — E2F firefly, rep 1: 1.03e5; Renilla normaliser, rep 1: 4065; Call: inactive
CG31872 (GeneID 34458) [DRSC02568] — E2F firefly, rep 1: 1.40e5; Renilla normaliser, rep 1: 4480; Call: inactive
CG31872 (GeneID 34458) [DRSC02572] — E2F firefly, rep 1: 1.42e5; Renilla normaliser, rep 1: 4815; Call: inactive
